These are yes or no findings as the source states them, for the method shown. Some results given as binding are weak or reduced against the parent protein; the word gives no strength.
Legend:
[1] = molecular target: Full-length E. coli TolR(1–142) (Escherichia coli K12) (UniProt P0ABV6); assay: native MS; native state ESI-MS, TolR(1–142) 30 μM, 100 mM ammonium acetate with 0.05% LDAO; freed from LDAO micelles in the collision cell; both purified
[2] = molecular target: E. coli TolR(36–133) (Escherichia coli K12) (UniProt P0ABV6); assay: condition: only at low micromolar concentrations (lowest sample 20 μM); SEC-MALS; SEC-MALLS, Superdex75 10/300, 50 mM Tris pH 7.5, 150 mM NaCl; the lowest protein concentration (20 μM loaded; 'low micromolar'); both purified

| Binder | binding [1] | binding [2] |
| --- | --- | --- |
| Full-length E. coli TolR(1–142) (protein, UniProt P0ABV6 1-142) GAMMARARGRGRRDLKSEINIVPLLDVLLVLLLIFMATAPIITQSVEVDLPDATESQAVSSNDNPPVIVEVSGIGQYTVVVEKDRLERLPPEQVVAEVSSRFKANPKTVFLIGGAKDVPYDEIIKALNLLHSAGVKSVGLMTQPI | binds | – |
| E. coli TolR(36–133) (domain or fragment, Escherichia coli K12, three residues left at the N terminus after cleavage by tobacco etch virus protease; TolR, Escherichia coli K12, residues 36-133 (9 C-terminal residues deleted); expected mass 10,768.2 Da; Dimer that dissociates on dilution; essentially monomeric at low micromolar concentrations; source: E. coli BL21 DE3, purified (HisTrap, TEV cleavage, Superdex75); not shown: His6, N-terminal, cleaved) GAMAPIITQSVEVDLPDATESQAVSSNDNPPVIVEVSGIGQYTVVVEKDRLERLPPEQVVAEVSSRFKANPKTVFLIGGAKDVPYDEIIKALNLLHSAGVK | – | no binding |
